Assay results published in patent publication US20140371080.

Amino acid sequences for entries named in this document (tags omitted). A change or cut given only in a name is not applied to a line headed by its entry.
UniProt P00573: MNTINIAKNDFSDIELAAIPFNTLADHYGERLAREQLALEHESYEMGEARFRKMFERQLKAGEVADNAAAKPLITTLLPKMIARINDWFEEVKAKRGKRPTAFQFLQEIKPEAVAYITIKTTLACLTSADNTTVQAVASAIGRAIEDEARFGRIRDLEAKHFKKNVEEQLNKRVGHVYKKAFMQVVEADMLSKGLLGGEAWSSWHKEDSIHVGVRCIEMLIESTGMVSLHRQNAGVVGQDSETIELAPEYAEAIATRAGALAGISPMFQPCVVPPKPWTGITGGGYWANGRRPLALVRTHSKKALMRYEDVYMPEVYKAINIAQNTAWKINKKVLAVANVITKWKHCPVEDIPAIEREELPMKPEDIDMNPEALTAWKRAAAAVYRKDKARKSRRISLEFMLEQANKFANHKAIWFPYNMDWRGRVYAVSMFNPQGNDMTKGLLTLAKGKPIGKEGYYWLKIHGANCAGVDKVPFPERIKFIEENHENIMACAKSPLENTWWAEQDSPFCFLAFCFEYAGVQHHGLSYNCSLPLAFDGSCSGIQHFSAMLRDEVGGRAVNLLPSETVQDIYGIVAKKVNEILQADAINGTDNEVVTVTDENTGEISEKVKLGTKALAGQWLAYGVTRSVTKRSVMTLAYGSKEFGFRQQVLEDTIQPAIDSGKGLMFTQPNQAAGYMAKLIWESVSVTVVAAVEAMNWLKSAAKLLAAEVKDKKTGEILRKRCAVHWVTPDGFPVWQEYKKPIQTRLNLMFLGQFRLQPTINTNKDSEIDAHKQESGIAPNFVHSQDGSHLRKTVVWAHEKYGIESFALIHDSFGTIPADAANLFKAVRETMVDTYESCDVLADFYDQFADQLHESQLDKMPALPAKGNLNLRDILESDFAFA

Target: T7 RNA polymerase (Bacteriophage T7) (UniProt P00573)
Assay: EMSA
Conditions: transcription from T7 promoter template, polymerase halted at Tus-bound Ter; nearly 100 percent of templates in halted complex; purified recombinant protein; protein details: 6xHis, expressed in E. coli

TAATACGACTCACTATAGG (double strand) [T7 promoter in halting template]
activity on this sequence: active
